Microarray screen: hit calls

Data from the ROBIN nucleic acid binder screens, doi:10.1002/anie.202211358.

Oligonucleotides screened, 5′ to 3′:
T1: PreQ1 riboswitch RNA pseudoknot, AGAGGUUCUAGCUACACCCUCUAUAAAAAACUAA. From B. subtilis. About 170 hits among about 24,000 compounds.
T2: TPP riboswitch RNA three-way junction, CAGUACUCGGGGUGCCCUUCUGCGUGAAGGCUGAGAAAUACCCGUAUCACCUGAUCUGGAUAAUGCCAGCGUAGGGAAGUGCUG. About 160 hits among about 24,000 compounds.
T3: SAM-II riboswitch RNA pseudoknot, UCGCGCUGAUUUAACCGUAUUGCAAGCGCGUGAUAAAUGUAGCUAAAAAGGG. About 200 hits among about 21,000 compounds.

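The test is a small-molecule microarray: each compound is printed twice on a reactive slide, and binding shows as fluorescence of the labelled oligonucleotide after washing. The data file lists only calls. An earlier report of the laboratory on the PreQ1, TPP and SAM-II riboswitches (doi:10.1038/s41467-019-09493-3) used 1 µM RNA for 2 h and required a mean Z-score above 3 (spot signal-to-noise against the whole library), a score well above that on a control array, and duplicate spots agreeing (coefficient of variation under 100); it then also set aside compounds that hit other targets, which this list keeps. The cut-offs behind this list may differ. A missing hit is not proof of no binding, and a hit is not a measured affinity.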 Key: hit = hit, no hit = tested without a hit. The compounds are a random part of those screened. A target missing from an entry has no call listed here.

CCOc1cc(C2c3c(-c4cc(C)ccc4O)n[nH]c3C(=O)N2CCCO)ccc1O (stereo unspecified) was scored T1: no hit; T2: no hit.
CC(C)Cc1cc(C(=O)N2CCN3C(=O)CN(C)C(=O)C3C2)nc(N)n1 (stereo unspecified) was scored T1: no hit; T2: no hit; T3: no hit.
Cn1c(-c2ccc(Cl)cc2)cnc1NCc1ccc(F)cc1 was scored T1: no hit; T2: no hit; T3: no hit.
CCOC(=O)c1oc2ccccc2c1CO was scored T1: no hit; T2: no hit; T3: no hit.
CN1c2ccccc2C2=C(C(c3ccc(C(F)(F)F)cc3)C(C#N)=C(N)O2)S1(=O)=O (stereo unspecified) was scored T1: no hit; T2: no hit.
O=C(c1ccccc1-n1cccn1)N1CCC(Cc2ccc(CO)cc2)C1 (stereo unspecified) was scored T1: no hit; T2: no hit; T3: no hit.
COc1ccccc1NC(CNS(=O)(=O)c1ccccc1)c1ccccc1 (stereo unspecified) was scored T1: no hit; T2: no hit.
CN(C)c1ccc(-c2nc3ccccn3c2Nc2ccc3c(c2)OCCO3)cc1 was scored T1: no hit; T2: no hit; T3: no hit.
COC(=O)c1c(N)c2cc(C)ccc2n1C was scored T1: no hit; T2: no hit; T3: no hit.
CSCCN(C)c1nc(N(C)C)nc2c1CCNCC2 was scored T1: no hit; T2: no hit; T3: no hit.
O=C1NC(=O)C(=Cc2ccc3c(c2)OC(F)(F)O3)S1 was scored T1: no hit; T2: no hit; T3: no hit.
CCn1c(CC2CCN(c3ncc(C#N)c(N)n3)CC2)nn(C)c1=O was scored T1: no hit; T2: no hit; T3: no hit.
O=c1c(-c2ccc(O)cc2)coc2cc(OC3O[C@H](CO)[C@H](O)[C@H](O)[C@H]3O)cc(O)c12 (stereo partly specified) was scored T1: no hit; T2: no hit; T3: no hit.
COc1ccc2c(C)c(C(=O)N3CCC4(CC3)OCCCC4O)oc2c1 (stereo unspecified) was scored T1: no hit; T2: no hit; T3: no hit.
COc1ccc(CCNc2oc(COc3ccc(OC)cc3)nc2C#N)cc1 was scored T1: no hit; T2: no hit; T3: no hit.
Cc1c(C(=O)N2CCC3(CC2)c2ccccc2CC3O)cnc2ccnn12 (stereo unspecified) was scored T1: no hit; T2: no hit; T3: no hit.
CC(=O)N1CCc2cc(S(=O)(=O)N(CCO)Cc3ccccc3)ccc21 was scored T1: no hit; T2: no hit; T3: no hit.
Cc1nccn1-c1ccccc1CNCc1cn(CCC(N)=O)c2ccccc12 was scored T1: no hit; T2: no hit; T3: no hit.
CCN(CC)CCNc1nc2c(c(=O)n(C)c(=O)n2C)n1C(C)c1ccccc1 (stereo unspecified) was scored T1: no hit; T2: no hit; T3: no hit.
Cc1cc(C)c2c(N)c(C(=O)NCCc3ccccc3)sc2n1 was scored T1: no hit; T2: no hit; T3: no hit.
Cn1ccnc1CN(CCO)Cc1ccc(C(F)(F)F)cc1 was scored T1: no hit; T2: no hit; T3: no hit.
COc1cc(NC(C)=O)c2ncccc2c1Br was scored T1: no hit; T2: no hit; T3: no hit.